# According to PubChem BioAssay AID2099 (Broad Institute, 2009):
# Protein sequences, listed by entry. Tags and fused reporters are not part of them. Residues count along the entry.
# UniProt Q9H3R0, 1-420 limits assumed: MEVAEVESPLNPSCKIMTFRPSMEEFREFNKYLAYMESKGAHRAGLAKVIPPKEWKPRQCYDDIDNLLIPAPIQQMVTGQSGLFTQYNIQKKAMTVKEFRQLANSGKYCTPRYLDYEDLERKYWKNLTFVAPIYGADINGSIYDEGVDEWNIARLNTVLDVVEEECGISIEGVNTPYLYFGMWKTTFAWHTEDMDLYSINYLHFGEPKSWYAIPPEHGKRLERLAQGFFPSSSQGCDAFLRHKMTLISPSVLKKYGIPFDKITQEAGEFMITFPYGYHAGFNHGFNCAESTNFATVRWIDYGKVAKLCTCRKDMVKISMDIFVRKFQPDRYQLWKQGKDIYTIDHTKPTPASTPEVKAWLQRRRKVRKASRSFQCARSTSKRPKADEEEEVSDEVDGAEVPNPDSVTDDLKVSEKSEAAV
# Out of some 330,000 compounds screened, about 230 (0.07%) were called active. This list was built around the results that the source calls inconclusive (neither active nor inactive); the mix of calls is not that of the screen.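 Rule for the calls: active = more than half of a compound's replicate wells show inhibition beyond 50%, single wells judged on their own value; inconclusive = some, but no more than half, of replicates pass 50% inhibition; inactive = no replicate passes 50% inhibition.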
# Biological target: Lysine-specific demethylase 4C (Homo sapiens) (UniProt Q9H3R0)
# Test: inhibitors of GASC-1 histone demethylase, primary screen, biochemical, fluorescence, DELFIA europium (AID 2099);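 note: signal counts dimethyl H3K9 product captured on neutravidin plate; 0% = median of DMSO wells and 100% = 0.3 times that DMSO median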
# Details: GST-JMJD2C(1-420) H3K9me3 demethylation, at 2.35 µM, stronger effect = higher value
row,SMILES,inhibition
1,COC(C/C=C\[C@@H](O)COCc1ccccc1)OC,inconclusive: -177%
2,COc1cc(/C=C2\NC(=S)N(C)C2=O)ccc1OCc1cccc(F)c1,inactive: -12.2%
3,CCSc1nnc([C@@H](NC(=O)OC(C)(C)C)C(C)C)o1,inconclusive: -51.9%
4,CC(C)(C)c1nnc2sc(SCC(=O)c3ccc4c(c3)OCCO4)nn2c1=O,inconclusive: -52.6%
5,O=C(COc1ccc(F)cc1)N(CC1=CCS(=O)(=O)C1)c1ccccc1,inconclusive: -296%
6,CC1CN(Cc2c(O)ccc3c2oc(=O)c2ccccc23)CC(C)O1 (configuration not stated),active: 53.6%
7,CC1=C/C(=N\OS(=O)(=O)c2ccccc2)C=CC1=O,inconclusive: -307%
8,O=C(CCCO)N/N=C/c1cc(Br)ccc1O,inconclusive: -67.7%
9,COc1ccc(OC)c(NC(=O)C(=O)N/N=C(\C)CC(=O)Nc2ccc(Cl)cn2)c1,inconclusive: -86.5%
10,Cc1cc(=O)oc2cc(OCC(=O)NCCc3c[nH]c4ccc(F)cc34)ccc12,inconclusive: -106%
11,O=C(NNC1=C(C(=O)C(F)(F)F)CCC1)c1ccc(Br)cc1,inactive: 6.1%
12,Cc1ccc(S(=O)(=O)N2c3ccccc3OCC2C(C)(C)C)cc1 (configuration not stated),inconclusive: -52.2%
13,CCc1noc(C)c1C(=O)N1CCN(S(=O)(=O)c2ccc(Br)cc2Cl)CC1,inconclusive: -173%
14,CCOC(=O)Nc1cc(C)c(Cl)cc1OC,active: 51%
15,COc1ccccc1N1CCN(CC(=O)c2ccc(F)cc2)CC1,inactive: -11.1%
16,CCN1C(=O)[C@H]2[C@@H](c3ccc(-c4ccccc4)cc3)N[C@@](Cc3ccccc3)(C(=O)OC)[C@H]2C1=O,inconclusive: -80.2%
17,CCOC(=O)CC1C(=O)NC2CCCCC2N1C(=O)Nc1ccc(Cl)cc1 (configuration not stated),inconclusive: -50%
18,CCOC(=O)C(CCCOc1ccc(C)cc1)C(=O)OCC,inactive: 2.65%
19,Nc1nnc(CC(=O)Nc2ccccc2)s1,inconclusive: -58%
20,Cc1ccc(N2C(=O)C(c3c(C)[nH]n(-c4ccccc4)c3=O)(C(F)(F)F)C3=C2CC(C)(C)CC3=O)cc1 (configuration not stated),inactive: 2.71%
21,CC(=O)N(Cc1ccccc1)Cc1cn(CCC#N)nc1-c1cccc([N+](=O)[O-])c1,inconclusive: -50.8%
22,CCOC(=O)N1CCN(C(=O)Nc2ccc3nccnc3c2)CC1,inconclusive: -29.9%

# Structures from the list above that contain an aryl thioether with sulfur outside any ring (2):
row,SMILES,inhibition
3,CCSc1nnc([C@@H](NC(=O)OC(C)(C)C)C(C)C)o1,inconclusive: -51.9%
4,CC(C)(C)c1nnc2sc(SCC(=O)c3ccc4c(c3)OCCO4)nn2c1=O,inconclusive: -52.6%

# The results go on.

row,SMILES,inhibition
1,CC(C)CC(=O)c1c[nH]c(C(=O)N2CCN(Cc3ccccc3)CC2)c1,inactive: -6.48%
2,COc1cc2c(cc1OC)CN(C(=O)C(C)(C)C)CC2,inconclusive: -77.6%
3,CC(OC(=O)CNC(=O)c1cccs1)C(=O)Nc1ccc(S(N)(=O)=O)cc1 (configuration not stated),inconclusive: -154%
4,N#Cc1ccc(Oc2cccnc2)cc1C#N,inconclusive: -114%
5,NC(=O)N/N=C/c1ccccc1OC(=O)c1cc2ccccc2oc1=O,inconclusive: -57%
6,COc1ccccc1C(=O)NCC(=O)NCc1cc(=O)n(C)c(=O)n1C,inconclusive: -137%
7,O=C(c1cccs1)N1CCN(c2ccc(F)cc2)CC1,inactive: 3.74%
8,CC1C(=O)N2CCCc3cc(S(=O)(=O)Nc4ccccc4C(N)=O)cc1c32 (configuration not stated),inconclusive: -198%
9,COc1ccc(NC(=O)C(c2ccc(Cl)cc2)C(C)C)cn1 (configuration not stated),inconclusive: -67.5%
10,CCOc1ccc(C2/C(=C(\O)c3c(C)[nH]c(C(=O)OC)c3C)C(=O)C(=O)N2CCN(C)C)cc1 (configuration not stated),inconclusive: -163%
11,O=S(=O)(c1ccc(Cl)nc1)N1CCCCC1,inactive: -0.233%
12,COc1ccc(Nc2nccc(OC)c2C#N)cc1,inconclusive: -151%
13,Cc1nn(CC(=O)OCC(=O)c2ccc(OC(F)F)cc2)c(C)c1[N+](=O)[O-],inactive: -5.9%
14,CN1C2CCC1CC(OC(=O)c1c[nH]c3ccccc13)C2 (configuration not stated),inconclusive: -125%
15,Cc1cc(=O)oc2cc(OCC(=O)N3CCN(c4ccc(F)cc4)CC3)c(Cl)cc12,inconclusive: -117%
16,CCCCn1c(N)c(N(CC(C)C)C(=O)c2ccc(Cl)c(S(=O)(=O)N3CCCC3)c2)c(=O)[nH]c1=O,inconclusive: -84.6%
17,COc1ccc(NC(=O)CN(C)C(=O)c2cccc(S(=O)(=O)Nc3ccc(OC)cc3)c2)cc1,inconclusive: -64.2%
18,CCOc1ccc(C2C(C#N)=C(N)N3C(=C2C#N)Sc2ccccc23)cc1 (configuration not stated),inconclusive: -44.1%
19,COc1ccccc1CNC(=O)[C@H](C)NC(=O)C1CCN(C(=O)[C@@H](N)CC(C)C)CC1,inconclusive: -391%
20,CC(C)CCN(C(=O)C1=COCCO1)c1c(N)n(Cc2ccccc2)c(=O)[nH]c1=O,active: 74.9%
21,COc1cc(OC)c2ccc(=O)oc2c1C(CCN1CCCC(C)C1)c1ccc2c(c1)OCO2 (configuration not stated),inactive: -2.97%
22,Cc1ccc(NC(=O)CNC(=O)c2sc3ccccc3c2Cl)nc1,inconclusive: -84.3%

row,SMILES,inhibition
1,O=C1CN(C(=O)CCCc2c[nH]c3ccccc23)c2ccccc2N1,active: 53.6%
2,Cc1ccc(NC2CC(=O)N(CCc3ccccc3)C2=O)cc1 (configuration not stated),inconclusive: -109%
3,CCOC(=O)C1=C(C)NC(=O)NC1c1c(C)nn(-c2ccccc2)c1Cl (configuration not stated),active: 60.5%
4,O=C(COc1ccc2c3c(c(=O)oc2c1)CCCC3)NCc1cccnc1,inconclusive: -84.5%
5,Cc1nc(-c2nc(CC(=O)NNC(=O)c3ccc(Cl)cc3)cs2)cs1,inactive: 23%
6,c1ccc2nc(-c3ccc4c(c3)OCO4)ccc2c1,inactive: 0.972%
7,COc1ccc(Cc2nnc(NCCO)[nH]c2=O)cc1,inactive: 7.2%
8,Cn1nc(-c2ccccc2)c(C#N)c1Sc1cccc(Cl)c1,inconclusive: -171%
9,Cn1c(=O)c2[nH]c(N3CCN(c4ccccc4)CC3)nc2n(C)c1=O,inconclusive: -95.7%
10,CCc1nonc1NC(=O)c1oc2cc(C)c(C)cc2c1C,inconclusive: -177%
11,O=C(NCc1ccccc1)c1nc2c(nnn2Cc2cccc(Cl)c2)c(=O)[nH]1,inactive: 6.63%
12,CN(CC(=O)Nc1ccc(Cl)cc1)C(=O)CCC1CCCC1,inconclusive: -66.9%
13,CCOC(=O)c1c(NC(=O)c2cc(C)oc2C)sc(C(=O)Nc2ccc(Cl)cc2)c1C,inconclusive: -64.3%
14,CC(C)NS(=O)(=O)c1ccc(Oc2ncc(C(F)(F)F)cc2Cl)cc1,inconclusive: -149%
15,Cn1c(=O)c(Nc2ccc(O)cc2)c2c3c(cccc31)C(=O)c1ccccc1-2,active: 59.6%
16,Cc1ccc(OCc2cc(C(=O)N3CCCC(O)C3)no2)cn1 (configuration not stated),inconclusive: -103%
17,COC(=O)CCCCCN1C(=O)NC(c2ccccc2)C(C(=O)OCc2ccccc2)=C1C (configuration not stated),inconclusive: -51.6%
18,S=c1[nH]nc(-c2cccnc2)n1/N=C/c1ccco1,inconclusive: -56.9%
19,COc1ccc(OC)c(CN2CCN(C(=O)c3cc4ccccc4cc3O)CC2)c1,inconclusive: -72%
20,COc1ccc([C@@H]2[C@@H]3C(=O)N(C(C)(C)C)C(=O)[C@@H]3[C@]3(Cc4ccccc4)C(=O)N(c4cccc(Cl)c4)C(=O)N23)cc1,inactive: -4.49%
21,CCN(CC)c1ccc(C2Nc3cccc4cccc(c34)N2)cc1,inconclusive: -53.2%
22,CC(C)C[C@H](NC(=O)N1CC(=O)Nc2ccccc21)C(=O)N[C@H](Cc1ccccc1)C(=O)O,inconclusive: -54.4%

# Shown bar-delimited: entries from further up
row | SMILES | inhibition
2 | Cc1ccc(NC2CC(=O)N(CCc3ccccc3)C2=O)cc1 (configuration not stated) | inconclusive: -109%
16 | Cc1ccc(OCc2cc(C(=O)N3CCCC(O)C3)no2)cn1 (configuration not stated) | inconclusive: -103%
18 | S=c1[nH]nc(-c2cccnc2)n1/N=C/c1ccco1 | inconclusive: -56.9%

# Later entries

row,SMILES,inhibition
1,Cc1ccc(C(=O)N/C(=C\c2cn(C)c3ccccc23)C(=O)N2CCN(C)CC2)cc1,inconclusive: -91.8%
2,CCCOc1ccc(Cc2nc(N)nc(N)n2)cc1,inconclusive: -55.4%
3,Cn1cccc1C(=O)/C(C#N)=C/c1ccc(F)cc1,inconclusive: -55.6%
4,CCOc1ccc2nc(N3C(=O)/C(=C/c4ccc(Cl)cc4)NC3=S)sc2c1,inactive: 1.93%
5,CC(NC(=O)CN(C)S(=O)(=O)c1cccc2nsnc12)c1ccccc1 (configuration not stated),inconclusive: -63.1%
6,CC(C)(C)NC(=O)CSc1nnc(-c2c[nH]c3ccccc23)o1,inactive: 7.03%
7,Cc1ccccc1NC(=O)Cc1nnc(SCC(=O)NC2=NCCS2)n1C,inconclusive: -51.7%
8,CCC(C)NC(=O)C1CCC(CNS(=O)(=O)c2cccc3nsnc23)CC1 (configuration not stated),inconclusive: -125%
9,Cc1ccc(-c2nc(CS(=O)CC(=O)NCCN3CCCCC3C)c(C)o2)cc1 (configuration not stated),inactive: -1.18%
10,O=C(N/N=C/c1ccccc1O)c1cccc(C(F)(F)F)c1,inactive: 4.66%
11,O=C(NCC1CCCN1S(=O)(=O)c1cccs1)C(=O)Nc1ccc(F)cc1 (configuration not stated),inactive: 52.9%
12,CCCOc1ccc(-c2nn(-c3ccccc3)cc2/C=C2\SC(=S)N(C3CCS(=O)(=O)C3)C2=O)cc1 (configuration not stated),inconclusive: -183%
13,Cc1c(C(=O)O)oc2c1C(O)CC(C)(C)C2 (configuration not stated),inconclusive: -58.6%
14,COc1ccc(Nc2ncnc3sc(-c4ccccc4)cc23)cc1OC,active: 54.2%
15,CCN(CC)S(=O)(=O)c1ccc(OC)c(NC(=O)Cc2cccs2)c1,inactive: 10.9%
16,CC(C)Cc1nnc(NC(=O)CCC(=O)N2CCN(C3CCCC3)CC2)s1,inconclusive: -103%
17,O=C(O)CSc1nnc(-c2cccs2)n1-c1ccc(Cl)cc1,inactive: 4.1%
18,CCOc1ccc(NC(=O)c2ccccc2SC)cc1,inactive: 1.57%
19,CCOc1cc(NC(=S)NCCOC)c(OCC)cc1NC(=O)c1cccs1,active: 68.8%
20,N#Cc1c(C(F)(F)F)cc(-c2cccs2)nc1SCc1cccnc1,inconclusive: -60.4%
21,C/C(=N\NS(C)(=O)=O)c1ccc(C)cc1,inconclusive: -112%
